Laboratory results published in patent US7763585B2, “Methods for inhibiting tumor cell proliferation” (priority 2003, dated 2010).

Test system: hSIE oligonucleotide
Test: Un-annealing/re-annealing of treated hSIE oligonucleotide, agarose gel electrophoresis
Conditions: ethidium bromide, versus untreated control oligonucleotide, FIG. 2

Row | SMILES | Migration pattern and band sharpness of treated, re-annealed hSIE oligonucleotide (DNA integrity)
1 | O=[N+]([O-])[Pt]1([Cl])([Cl])([Cl])[NH]CC[NH]1 [ISS CPA-1] | identical migration pattern and band sharpness
2 | [NH2][Pt]([NH2])([Cl])([Cl])([Cl])[N+](=O)[O-] [ISS CPA-7] | identical migration pattern and band sharpness
3 | [Cl][Pt]([Cl])([Cl])[Cl] [platinum (IV) chloride] | identical migration pattern and band sharpness

Some entries repeat one wording, which the source may state once for all of them.
